For this series, the system named is homooligomeric bovine α3 CNG channels. The series can be described thus: Patch clamp electrophysiology of inside-out patches: activation of heterologously expressed CNG channels by cAMP and cGMP. The format is biochemical. The following applies: +100 mV; for Imax: maximum current, cAMP / Imin: minimum current, cAMP: FIG. 1B / 3B; for Imax: maximum current, cGMP / Imin: minimum current, cGMP: FIG. 2B / 4B. The text has this: For this purpose, the corresponding nucleic acids were cloned into the expression vector pcDNA3.1 (Invitrogen) (see Methods). The expression constructs were then used to transform the cells of the human embryonic kidney cell line 293 (HEK293 cells) and the corresponding proteins were functionally expressed therein either transiently or stably (see Methods). The results of the studies are depicted in FIGS. 1-4. FIGS. 1-4 B depict the dependence of the average current on the cAMP concentration and cGMP concentration, respectively, in each case in the form of a dose-response relationship. The results of these measurements were used to calculate the sensitivity of the CNG channels to cAMP and cGMP. […] EMBO J., 13, 5040-5050. For electrophysiological characterization, the cells were transferred to glass slides which had been coated with poly L-lysine, on the day after transfection. The electrophysiological studies were then carried out on the following day. […] The electrophysiological characterization of the genetically modified CNG channels was carried out using the patch clamp technique under voltage clamping conditions. […] inside-out patches were excised from cells which stably expressed genetically modified or wild-type CNG channels. The bath solution containing different concentrations of cyclic nucleotides was used to flow over the membrane patches. Starting from a holding voltage of 0 mV, sudden voltage changes were applied to different test voltages between -100 mV and +100 mV at the patch with a step width of 20 mV. The currents were registered and analyzed using standard methods.
Background: The patch-clamp technique gives a direct electrical read-out from membranes.

Changes are numbered by the printed parent chain. Names may count otherwise.

B1: T537M: bovine α3 CNG channel with methionine in place of threonine T537 (SEQ ID NO 4) (protein, UniProt Q03041 1-663, looked up, variant T537M)
Cyclic nucleotide-gated …: MTEKANGVKSSPANNHNHHAPPAIKASGKDDHRASSRPQSAAADDTSSELQQLAEMDAPQQRRGGFRRIARLVGVLREWAYRNFREEEPRPDSFLERFRGPELHTVTTQQGDGKGDKDGEGKGTKKKFELFVLDPAGDWYYRWLFLIALPVLYNWCLLVARACFSDLQKGYYIVWLVLDYVSDVVYIADLFIRLRTGFLEQGLLVKDTKKLRDNYIHTMQFKLDVASIIPTDLIYFAVGIHNPEVRFNRLLHFARMFEFFDRTETRTSYPNIFRISNLILYILIIIHWNACIYYAISKSIGFGVDTWVYPNITDPEYGYLSREYIYCLYWSTLTLTTIGETPPPVKDEEYLFVIFDFLIGVLIFATIVGNVGSMISNMNATRAEFQAKIDAVKHYMQFRKVSKEMEAKVIRWFDYLWTNKKSVDEREVLKNLPAKLRAEIAINVHLSTLKKVRIFQDCEAGLLVELVLKLRPQVFSPGDYICRKGDIGKEMYIIKEGKLAVVADDGVTQYALLSAGSCFGEISILNIKGSKMGNRRMANIRSLGYSDLFCLSKDDLMEAVTEYPDAKRVLEERGREILMKEGLLDENEVAASMEVDVQEKLEQLETNMDTLYTRFARLLAEYTGAQQKLKQRITVLETKMKQNNEDDSLSDGMNSPEPPAEKP
As for B1, the “Imax: maximum current, cAMP” value is reported as 328 pA; the “Imin: minimum current, cAMP” value was found to be 24 pA; the “Imax: maximum current, cGMP” value is given as 167 pA; the “Imin: minimum current, cGMP” value stood at 11 pA.

B2: T537V: bovine α3 CNG channel with valine in place of threonine T537 (SEQ ID NO 6) (protein)
chain: B1 Cyclic nucleotide-gated … with M537V
modifications: Bovine
Regarding B2, the “Imax: maximum current, cAMP” value is on record as 181 pA; the “Imin: minimum current, cAMP” value is on record as 11 pA; the “Imax: maximum current, cGMP” value is listed as 1 389 pA; the “Imin: minimum current, cGMP” value came to 13 pA.
